Assay results from PubChem BioAssay AID1508623 (National Center for Advancing Translational Sciences (NCATS), 2021).
The campaign covered roughly 48,000 compounds. About 450 (0.94%) were called active. These results got no clear call from the source, so the numbers are uncertain. Calls come from the whole dose curve; as a rule, active = well fitted inhibition curve with a large enough effect; inconclusive = small, poorly fitted or top-dose-only effect; inactive = no such curve, though single readings can be large or run the other way.

experiment: Primary qHTS for Identification of Small Molecule Inhibitors of Huntingtin Promoter Activity; conditions: HEK293 HTT promoter firefly luciferase reporter (activity 0% = vehicle and -100% = no light), 24 h; note: nearly all actives have a fitted effect of over 50% in size
Excerpt: Assay Provider: Russell L. Margolis M.D.
Department Neurology, Johns Hopkins University School of Medicine, Baltimore, MD
Huntington's Disease (HD) is a neurodegenerative disorder caused by a CAG repeat expansion in exon 1 of huntingtin (HTT). While there are currently no disease-modifying treatments for HD, recent efforts have focused on development of nucleotide-based therapeutics to lower HTT expression. As an alternative to siRNA or oligonucleotide methods, we hypothesized that suppression of HTT expression might be accomplished by small molecules that either (1) directly decrease HTT expression by suppressing HTT promoter activity or (2) indirectly decrease HTT expression by increasing the promoter activity of HTT-AS, the gene antisense to HTT that appears to inhibit expression of HTT. […]
7; Detection; Luminescence; FLuc […]
1; High-throughput screening, measuring luminescence from a Hek293 luciferase reporter, was performed in 1,536 well white-walled tissue-culture treated plates. […]
4; Cells were then incubated for 24 hours at 37 degrees C prior to luminescence measurements.
5; In all cases, luminescence was measured using the Dual-Glo Luciferase Reporter Assay System (Promega) following the manufacturer's instructions. […]
7; Luminescence signal was obtained using the PerkinElmer ViewLux plate reader. […]
Potency is the fitted concentration of half-maximal effect.

| Compound | Potency |
| --- | --- |
| CC1=C2[N-][C@@](C)([C@@H]3N=C(C(C)=C4N=C(C=C5N=C1[C@@](C)(CC(N)=O)[C@H]5CCC(N)=O)C(C)(C)[C@H]4CCC(N)=O)[C@](C)(CCC(=O)NC[C@@H](C)OP(=O)([O-])O[C@H]1[C@@H](O)[C@@H](n4cnc5cc(C)c(C)cc54)O[C@H]1CO)[C@H]3CC(N)=O)[C@@](C)(CC(N)=O)[C@@H]2CCC(N)=O.[C-]#N.[Co+3] | inconclusive: 21.1 µM |
